The results in this text go back to US20140128357A1, “METHODS OF PRODUCING AND USING BRASSINOSTEROIDS TO PROMOTE GROWTH, REPAIR AND MAINTENANCE OF SKELETAL MUSCLE AND SKIN” (Rutgers University, priority 2010, published 2014).

A short description of data set [1]: Body composition and blood biochemistry, rats on normal diet, 24 d oral HB (Protocol 1). The class given is in vivo, rat. Particulars: for Glucose: fasted; for Cholesterol / Insulin: plasma. As for the experimental part: (§1) Six-week-old male Wistar rats (180-220 g, Charles River Laboratories, MA) were housed in individual chambers in a room maintained at a constant room temperature with 12 h light-dark cycle. Animals had free access to food and water. Animals were allowed to adapt to new conditions for 7 d and handling the animals was carried out daily during this time to reduce the stress of physical manipulation. Animals were randomized into groups according to bodyweight 1 d prior to dosing.
The body weight of each animal and the total amount of food consumed (accounted for spillage) were recorded every 2 d for the duration of the experiment. At the end of the experiment, blood was collected by heart puncture after CO2 inhalation and animal body composition was assessed by DEXA dual-energy X-ray absorptiometry analysis using a Lunar Prodigy Densitometer (GE Healthcare, Waukesha, Wis.). At necropsy, tissue weights were recorded. Tissue samples were collected by snap-freezing in liquid nitrogen and stored at −80° C. for further studies. Total RNA was isolated using Trizol, its quantity and purity were determined using a NanoDrop (Nanodrop Technologies, Wilmington, Del.).
(§2) Blood samples were taken from overnight-fasted animals by heart puncture, collected in EDTA-coated tubes, centrifuged 1,500 g for 20 min, and separated plasma was stored at −80° C. until analysis. Glucose was measured in blood samples using a Lifescan glucometer (Johnson and Johnson, New Brunswick, N.J.). […] Plasma triglycerides and total cholesterol were measured by enzymatic colorimetric assays (Wako Diagnostics, Richmond, Va.). Total testosterone in plasma samples was quantified by an ELISA assay (DRG Diagnostics, Marburg, Germany).

Data set [2] in a line: Body composition and blood biochemistry, rats on high-protein diet, 24 d oral HB (Protocol 2). The format is in vivo, rat. To be noted: for Glucose: fasted; for Cholesterol / Insulin / Triglycerides: plasma. How it is done:
as §1
Protocol 2: Three groups of Wistar rats (n=8), fed a high-protein diet containing 39.4% protein, 10.0% fat, 4.3% fiber, and 37.0% carbohydrates, resulting in 3.93 kcal/g energy value (#5779 diet, Testdiet/Purina, Richmond, Ind.), were gavaged daily for 24 d with 1 ml of vehicle (5% DMSO in corn oil), 20 or 60 mg/kg HB. All procedures and measurements followed protocol 1.
as §2

On to `CC[C@@H](C(C)C)[C@H](O)[C@@H](O)[C@@H](C)[C@H]1CC[C@H]2[C@@H]3COC(=O)[C@H]4C[C@H](O)[C@H](O)C[C@]4(C)[C@H]3CC[C@]12C` [Compound 1, (22S,23S,24S)-2α,3α,22,23-tetrahydroxy-24 ethyl-β-homo-7-oxo-5α-cholestane-6-one], for which, in data set [1] (20 mg/kg oral daily 24 d), the “total daily food intake” value was found to be 22.2 ± 0.8 g, the Glucose worked out at 5.1 ± 0.5 mM, the Cholesterol is 69.9 ± 6.0 mg/dL and the Insulin worked out at 2.39 ± 0.58 ng/mL. In data set [1] (60 mg/kg oral daily 24 d), the “total daily food intake” value worked out at 23.6 ± 0.5 g, the Cholesterol worked out at 84.2 ± 5.3 mg/dL and the Insulin amounted to 2.65 ± 0.45 ng/mL. Besides, the Glucose in data set [1] (60 mg/kg oral daily 24 d, listed as HB, 60 mg/kg) came out at 4.5 ± 0.3 mM. Also, in data set [2] (20 mg/kg oral daily 24 d), the Glucose was 5.1 ± 0.2 mM, the Cholesterol came out at 97.5 ± 6.0 mg/dL, the Insulin stood at 2.39 ± 0.34 ng/mL and the Triglycerides is 1.2 ± 0.1 mM. Also, in data set [2] (60 mg/kg oral daily 24 d), the Glucose came to 4.8 ± 0.2 mM, the Cholesterol is 87.4 ± 2.9 mg/dL, the Insulin came out at 2.38 ± 0.41 ng/mL and the Triglycerides is listed as 1.3 ± 0.1 mM.
